PubChem BioAssay AID686937, Drosophila RNAi Screening Center | 2013

- Assay: 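Knock-downs that reduce output of a secreted reporter enzyme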 (primary screen)
- Cells: Drosophila S2 cells expressing secreted horseradish peroxidase
- Reagent: long dsRNA against Drosophila genes
- Timing: about 5.5 days (5 days dsRNA, then 12 h reporter induction)
- Treatment: reporter expression induced after 5 days of dsRNA, read 12 h later; inducer not stated
- Read-out: 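After 5 days of dsRNA and 12 h of reporter induction, medium peroxidase read by chemiluminescence and scored as per-plate z-score; higher values mean more reporter released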
- Direction: z-score: higher = more reporter secreted into medium
The screen tested about 23,000 reagents; this is an unselected part of those that have a named target and a result. 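Reduced-secretion tags in replicate 1 do not always agree with the z-scores; no criterion for assigning the tags was given.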 Further read-outs or replicates are left out here. No sequences are given here. Not stated in the record: the amount of reagent.

Against Ugt317A1 [DRSC04470], the values are z-score, replicate 1 = -0.14.
Knock-down of Ubqn [DRSC19581] gave: z-score, replicate 1 = -0.03.
CG6330 [DRSC16022] showed z-score, replicate 1 = 0.22.
Against Atg14 [DRSC14421], the entry reads z-score, replicate 1 = 0.19.
After knock-down of CG43335 [DRSC15764], the record shows z-score, replicate 1 = 0.14.
Knock-down of CG43335 [DRSC22671] resulted in: z-score, replicate 1 = -1.77.
With knock-down of mAChR-B [DRSC16345] the results were z-score, replicate 1 = 0.34.
Silencing of CG14591 [DRSC04868] came out at: z-score, replicate 1 = 0.35.
Silencing of CG2616 [DRSC15440] came out at: z-score, replicate 1 = 0.02.
After knock-down of CG3662 [DRSC00626], the screen gave z-score, replicate 1 = 0.59.
With knock-down of CG6362 [DRSC07413], the record shows z-score, replicate 1 = 0.33.
With knock-down of Actbeta [DRSC17185] the results were z-score, replicate 1 = 0.51.
Depletion of Actbeta [DRSC17217] resulted in: z-score, replicate 1 = 0.26.
For CG5001 [DRSC00673], the values are z-score, replicate 1 = 0.03.
Knock-down of Pp1-13C [DRSC20269] resulted in: z-score, replicate 1 = -0.04.
Depletion of CG12301 [DRSC09875] came out at: z-score, replicate 1 = 0.22.
For CG7058 [DRSC20021] the deposit lists z-score, replicate 1 = 0.25.
For CG6138 [DRSC02933] the deposit lists z-score, replicate 1 = 0.63.
With knock-down of nec [DRSC06769], the screen gave z-score, replicate 1 = 0.15.
Silencing of Cpr76Bc [DRSC11062] came out at: z-score, replicate 1 = 0.41.
For Zyx [DRSC17186] the deposit lists z-score, replicate 1 = 0.19.
With knock-down of fs(1)h [DRSC18778], the screen gave z-score, replicate 1 = -3.78.
For aust [DRSC02558] the deposit lists z-score, replicate 1 = 0.27.
With knock-down of CG14877 [DRSC15001] the results were z-score, replicate 1 = 0.11.
With knock-down of cu [DRSC15643], the screen gave z-score, replicate 1 = 0.42.
cu [DRSC15648] showed z-score, replicate 1 = 0.62.
Knock-down of up [DRSC20382] came out at: z-score, replicate 1 = 0.39.
